These are yes or no findings as the source states them, for the method shown. For some assays here: Binding seen in cells or lysates may run through a third protein. Some entries that bind do so weakly or less than the wild type. Tags and fused reporters may be left off the sequences shown.
Key:
bovine ErbB3 (bovine) [1] = target: bovine ErbB3 (bovine) (UniProt A6QR62); experiment: summary of the examples (co-immunoprecipitation and pull-down)
human ErbB4 (human) [2] = target: human ErbB4 (human) (UniProt Q15303); experiment: as above
bovine ErbB3 (bovine) [3] = target: bovine ErbB3 (bovine) (UniProt A6QR62); experiment: co-immunoprecipitation from co-infected Sf9 cells, anti-FLAG blot
human ErbB4 (human) [4] = target: human ErbB4 (human) (UniProt Q15303); experiment: as above
bovine ErbB3 (bovine) [5] = target: bovine ErbB3 (bovine) (UniProt A6QR62); experiment: GST pull-down from Sf9 lysates, receptor blot
human ErbB4 (human) [6] = target: human ErbB4 (human) (UniProt Q15303); experiment: GST pull-down from Sf9 lysates, receptor blot
human ErbB4 (human) [7] = target: human ErbB4 (human) (UniProt Q15303); experiment: GST pull-down of ErbB4 expressed in Sf9 cells
[8] = target: T1, entire intracellular portion of bovine ErbB3 (residues W665 to I1335) in pAS1 bait plasmid (bovine) (UniProt A6QR62); experiment: yeast two-hybrid screen
T1 sequence: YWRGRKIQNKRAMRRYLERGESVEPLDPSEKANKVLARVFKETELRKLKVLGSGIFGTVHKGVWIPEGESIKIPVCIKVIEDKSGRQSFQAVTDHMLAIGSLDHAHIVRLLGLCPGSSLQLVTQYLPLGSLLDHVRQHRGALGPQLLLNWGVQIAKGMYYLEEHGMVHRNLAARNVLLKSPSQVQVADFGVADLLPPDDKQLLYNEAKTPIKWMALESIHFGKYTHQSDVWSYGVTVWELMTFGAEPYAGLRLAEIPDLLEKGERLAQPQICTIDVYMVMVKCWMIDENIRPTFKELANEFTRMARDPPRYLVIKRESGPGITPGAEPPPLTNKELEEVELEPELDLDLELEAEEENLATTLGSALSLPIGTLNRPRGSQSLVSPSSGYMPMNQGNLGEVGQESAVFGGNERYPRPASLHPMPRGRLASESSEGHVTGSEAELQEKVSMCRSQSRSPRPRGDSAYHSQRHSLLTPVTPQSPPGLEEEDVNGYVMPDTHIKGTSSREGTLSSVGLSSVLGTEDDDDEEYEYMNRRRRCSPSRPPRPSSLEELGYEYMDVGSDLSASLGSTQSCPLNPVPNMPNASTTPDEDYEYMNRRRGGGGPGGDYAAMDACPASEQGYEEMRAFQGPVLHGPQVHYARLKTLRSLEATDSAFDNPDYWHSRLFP

Chains of the proteins cited; added tags and fusions are not shown. Residues count along the entry.
UniProt Q15303, residues 26-1308: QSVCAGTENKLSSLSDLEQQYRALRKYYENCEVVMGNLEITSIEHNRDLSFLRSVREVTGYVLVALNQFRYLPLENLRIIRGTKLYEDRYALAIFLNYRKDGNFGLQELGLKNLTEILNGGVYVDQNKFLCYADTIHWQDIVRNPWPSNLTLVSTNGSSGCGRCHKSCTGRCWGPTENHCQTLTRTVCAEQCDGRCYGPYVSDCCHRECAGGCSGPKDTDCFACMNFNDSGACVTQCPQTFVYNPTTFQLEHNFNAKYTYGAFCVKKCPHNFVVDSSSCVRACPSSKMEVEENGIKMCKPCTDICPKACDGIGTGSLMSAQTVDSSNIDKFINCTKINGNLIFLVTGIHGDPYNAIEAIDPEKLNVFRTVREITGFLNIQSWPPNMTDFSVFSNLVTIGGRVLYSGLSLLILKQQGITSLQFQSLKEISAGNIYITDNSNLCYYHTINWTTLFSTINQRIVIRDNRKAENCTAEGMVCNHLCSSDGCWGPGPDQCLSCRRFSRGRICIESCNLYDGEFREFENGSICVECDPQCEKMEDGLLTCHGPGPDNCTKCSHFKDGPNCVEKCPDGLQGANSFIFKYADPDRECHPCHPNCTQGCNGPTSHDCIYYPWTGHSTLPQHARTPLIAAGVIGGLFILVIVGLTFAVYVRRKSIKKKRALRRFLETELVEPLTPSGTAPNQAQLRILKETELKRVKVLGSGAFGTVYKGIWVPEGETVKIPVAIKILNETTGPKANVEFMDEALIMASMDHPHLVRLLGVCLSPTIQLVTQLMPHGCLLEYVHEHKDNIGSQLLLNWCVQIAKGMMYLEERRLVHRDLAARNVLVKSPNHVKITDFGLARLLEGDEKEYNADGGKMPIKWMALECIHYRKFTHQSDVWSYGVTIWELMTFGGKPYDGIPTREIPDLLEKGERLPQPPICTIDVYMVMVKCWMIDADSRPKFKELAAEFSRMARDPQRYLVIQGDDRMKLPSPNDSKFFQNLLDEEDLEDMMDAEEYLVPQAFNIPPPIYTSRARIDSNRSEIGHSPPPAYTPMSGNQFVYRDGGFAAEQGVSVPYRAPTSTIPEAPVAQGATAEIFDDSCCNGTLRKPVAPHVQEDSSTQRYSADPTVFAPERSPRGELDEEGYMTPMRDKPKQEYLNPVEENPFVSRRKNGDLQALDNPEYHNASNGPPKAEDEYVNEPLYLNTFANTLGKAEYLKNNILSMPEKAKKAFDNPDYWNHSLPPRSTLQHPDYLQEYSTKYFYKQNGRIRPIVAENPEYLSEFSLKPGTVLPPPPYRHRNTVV

B1: Nrdp1 tagged at its amino terminus with FLAG epitope (baculovirus, Sf9 insect cells) (other)
chain: DYKDDDDKMGYDVTRFQGDVDEDLICPICSGVLEEPVQAPHCEHAFCNACITQWFSQQQTCPVDRSVVTVAHLRPVPRIMRNMLSKLQIACDNAVFGCSAVVRLDNLMSHLSDCEHNPKRPVTCEQGCGLEMPKDELPNHNCIKHLRSVVQQQQTRIAELEKTSAEHKHQLAEQKRDIQLLKAYMRAIRSVNPNLQNLEETIEYNEILEWVNSLQPARVTRWGGMISTPDAVLQAVIKRSLVESGCPASIVNELIENAHERSWPQGLATLETRQMNRRYYENYVAKRIPGKQAVVVMACENQHMGDDMVQEPGLVMIFAHGVEEI
notes: Construct used for the Sf9 co-immunoprecipitations; also called FLAG-Nrdp1; neuregulin receptor degradation protein-1
In the case of B1, the binding (bovine ErbB3 (bovine) [1]) is reported as “binds”, the binding (human ErbB4 (human) [2]) is reported as “binds” and the binding (bovine ErbB3 (bovine) [3]) is reported as “binds”. The binding (human ErbB4 (human) [4]) was “binds”.

B2: GST fusion protein of clone 32 encompassing Nrdp1 residues I135 to I317 (other)
chain: IKHLRSVVQQQQTRIAELEKTSAEHKHQLAEQKRDIQLLKAYMRAIRSVNPNLQNLEETIEYNEILEWVNSLQPARVTRWGGMISTPDAVLQAVIKRSLVESGCPASIVNELIENAHERSWPQGLATLETRQMNRRYYENYVAKRIPGKQAVVVMACENQHMGDDMVQEPGLVMIFAHGVEEI
notes: Expressed in bacteria and immobilized on beads (3 ug) for the pull-downs; also called GST-32; GST fusion of clone 32; not shown: glutathione S-transferase encoded by the pGEX vector
With B2 the binding (bovine ErbB3 (bovine) [5]) was “binds”, the binding (human ErbB4 (human) [6]) was “binds” and the binding (human ErbB4 (human) [7]) was “binds”.

B3: clone 32-encoded polypeptide fused to the activation domain of GAL4 (yeast two-hybrid prey) (protein, not shown: large carriers)
chain: IKHLRSVVQQQQTRIAELEKTSAEHKHQLAEQKRDIQLLKAYMRAIRSVNPNLQNLEETIEYNEILEWVNSLQPARVTRWGGMISTPDAVLQAVIKRSLVESGCPASIVNELIENAHERSWPQGLATLETRQMNRRYYENYVAKRIPGKQAVVVMACENQHMGDDMVQEPGLVMIFAHGVEEI
For B3, the binding [8] was “binds”.

From US20070197431A1 (published 2007)
